In publication PMC6272242, “Topical Anti-inflammatory Activity of New Hybrid Molecules of Terpenes and Synthetic Drugs” (Molecules, 2015):

Columns and labels:
hepatocytes HepG2 = test: Cytotoxicity, MTT reduction assay, HepG2; format: cell-based; details: Homo sapiens, confluent cultures, 24 h, read-out: IC50 ± SD, HepG2
Procedure: The human cell lines, MRC-5 normal lung fibroblasts (CCL-171), AGS gastric epithelial adenocarcinoma cells (CRL-1739) and HepG2 hepatocellular carcinoma cells (HB-8065) were obtained from the American Type Culture Collection (ATCC, Manasas, VA, USA). The cells were grown as monolayers in the following media: MRC-5 and HepG2 in MEM and AGS in Ham F-12. The MEM medium contained 2 mM L-glutamine, 1 mM sodium pyruvate and 1.5 g/L sodium bicarbonate. Ham F-12 was supplemented with 2 mM L-glutamine and 1.5 g/L sodium bicarbonate. Both media were supplemented with 10% heat inactivated fetal bovine serum, 100 IU/mL penicillin and 100 µg/mL streptomycin in a humidified incubator with 5% CO2 in air at 37 °C. For the experiments, cells were plated at a density of 25,000 cells/mL in 96-well plates. […] Compounds were first dissolved in DMSO and then in medium. The final concentration of DMSO in the test medium and controls was 1%. […] The cell viability for each compound was calculated comparing the cell viability of the untreated controls (100%) with the cell viability of the different concentrations of each compound. Each concentration was tested in quadruplicate together with the control and repeated three times in separate experiments. Cell viability was determined at the end of the incubation by means of the MTT reduction assay. […] Results are expressed as IC50 values (µM) ± S.D.

[1] = system: mice ear edema induced by arachidonic acid; test: Topical anti-inflammatory effect, arachidonic acid (AA) induced ear edema in mice; format: in vivo; details: 3.2 µmol/mouse, 1 h after AA, n = 8, read-out: % TAAA ± SEM (percent reduction of the ear edema, arachidonic acid)
Procedure: The inflammatory agent arachidonic acid (AA) and phorbol 12-myristate 13-acetate (TPA) were used to assess the anti-inflammatory effect/action mechanism of the starting compounds, new synthetic products and reference drugs. […] Adult male CF-1 mice (20–25 g), obtained from a stock maintained at the Chilean Public Health Institute, were used to assess the anti-inflammatory effect. All animals were housed in a climate- and light-controlled room with a 12 h light-dark cycle, fasted overnight before the day of the assays, with free access to water. The anti-inflammatory activity of each compound was evaluated in groups of 8 treated and 16 control mice. Due to ethical considerations, the number of animals was kept to a minimum and single dose experiments were carried out.
The pro-inflammatory agents TPA and AA, the reference drugs indomethacin and nimesulide were from Sigma. […] The percent topical anti-inflammatory activity (TA) was evaluated according to the following equation: (1) %TA=[ Wc−Ws/Wc]× 100 where Wc and Ws are the different median values of the weights of the right and the left ear sections of the control and the treated animals, respectively.
For the animal experiments all values are presented as median ± SEM. […] Results are expressed as IC50 values (µM) ± S.D.

Which results are given for `COc1ccc2cc([C@H](C)C(=O)O)ccc2c1` [Compound 5, naproxen, reference compound]?
IC50 (hepatocytes HepG2): > 1000 µM; inhibition in vivo at 3.2 µmol/animal [1]: 1.8 ± 7.5%
